Measured values taken from article PMC11995267.
Changes are numbered by the printed parent chain. Numbers in names are those of the source. Results are given in words; binding and its absence hold for the method and conditions named. Binding seen in cells or lysates may run through a third protein. Some results given as binding are weak or reduced against the parent protein; the word gives no strength. Where a sequence is shown, tags or fusion partners need not be part of it.

T1: Elp1-c-Myc (S. cerevisiae) (UniProt Q06706)
T1 sequence: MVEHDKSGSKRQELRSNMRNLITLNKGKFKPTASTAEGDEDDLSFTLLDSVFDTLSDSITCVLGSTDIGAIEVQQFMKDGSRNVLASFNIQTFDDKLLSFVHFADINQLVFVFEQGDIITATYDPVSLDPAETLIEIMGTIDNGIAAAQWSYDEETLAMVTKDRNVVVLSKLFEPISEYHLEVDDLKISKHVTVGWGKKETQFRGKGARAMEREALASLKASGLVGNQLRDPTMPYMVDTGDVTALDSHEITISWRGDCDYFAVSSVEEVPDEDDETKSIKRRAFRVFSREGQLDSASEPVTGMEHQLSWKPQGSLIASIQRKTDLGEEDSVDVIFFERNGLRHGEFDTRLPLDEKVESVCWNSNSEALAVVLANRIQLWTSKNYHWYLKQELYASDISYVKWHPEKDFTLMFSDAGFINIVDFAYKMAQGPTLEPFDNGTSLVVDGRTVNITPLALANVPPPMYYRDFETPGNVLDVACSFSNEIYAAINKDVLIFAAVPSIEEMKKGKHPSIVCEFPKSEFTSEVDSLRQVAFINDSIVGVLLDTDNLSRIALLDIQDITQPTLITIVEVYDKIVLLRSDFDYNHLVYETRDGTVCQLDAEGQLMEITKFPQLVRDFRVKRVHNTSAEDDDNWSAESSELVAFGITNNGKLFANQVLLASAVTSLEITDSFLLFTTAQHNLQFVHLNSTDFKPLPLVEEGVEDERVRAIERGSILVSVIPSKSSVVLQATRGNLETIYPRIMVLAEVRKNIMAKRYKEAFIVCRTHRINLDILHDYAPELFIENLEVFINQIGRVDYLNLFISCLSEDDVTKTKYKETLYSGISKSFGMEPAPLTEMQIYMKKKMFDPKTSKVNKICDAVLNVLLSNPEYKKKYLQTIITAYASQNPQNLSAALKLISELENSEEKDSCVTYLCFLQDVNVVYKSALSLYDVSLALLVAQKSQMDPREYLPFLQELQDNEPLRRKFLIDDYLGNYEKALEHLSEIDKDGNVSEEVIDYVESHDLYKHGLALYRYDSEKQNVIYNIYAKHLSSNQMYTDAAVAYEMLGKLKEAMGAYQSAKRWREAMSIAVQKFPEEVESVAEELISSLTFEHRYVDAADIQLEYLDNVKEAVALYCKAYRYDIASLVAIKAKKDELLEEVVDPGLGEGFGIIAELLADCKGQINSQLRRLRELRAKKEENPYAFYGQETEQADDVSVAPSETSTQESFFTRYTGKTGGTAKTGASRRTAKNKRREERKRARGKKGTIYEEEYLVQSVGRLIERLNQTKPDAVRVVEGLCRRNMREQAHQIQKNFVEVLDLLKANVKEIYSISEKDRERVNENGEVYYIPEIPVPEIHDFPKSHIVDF

B1: Kti12-HA (wild type) (protein, UniProt P34253 1-313)
chain: MPLVLFTGYPCSGKTTLAKHLVQLLQSKIDATPSLSKYSITYHSDESLGIKHSDYITSQDERKLRSEIISAVKRDLSKNKIVIVDSLNYIKGFRYQLHCEVKNLSTTFCVIQTLCPPETIFEWNKTSNPNPWEPELLNQLIQRYEEPNSSNRWDSPLFAILTPQDNITDYIDDICKVVFQTSKSAKNSGHNDPLSKGLQKPNSATVLKPASQSNFIQVLDIETSKIIKTIMNHIKSLTSIGGVSNGTRVIVSEGITDINDDGCFFVDLPIGNVVTLAQLQRLKRQFINFNKLRDIDQDRIGPLFADYLNKNLN
B2: Kti12-HA D220A (protein, UniProt P34253 1-313)
chain: B1 chain with D220A
B3: Kti12-HA S224R (protein, UniProt P34253 1-313)
chain: B1 chain with S224R
B4: Kti12-HA K225A (protein, UniProt P34253 1-313)
chain: B1 chain with K225A
B5: Kti12-HA K228A (protein, UniProt P34253 1-313)
chain: B1 chain with K228A
B6: Kti12-HA K235A (protein, UniProt P34253 1-313)
chain: B1 chain with K235A
B7: Kti12-HA R281A (protein, UniProt P34253 1-313)
chain: B1 chain with R281A
B8: Kti12-HA K283A (protein, UniProt P34253 1-313)
chain: B1 chain with K283A
B9: Kti12-HA R284A (protein, UniProt P34253 1-313)
chain: B1 chain with R284A
B10: recombinant Kti12 (wild type), His-tagged (protein, UniProt P34253 1-313)
chain: B1 chain

These binders were tested against T1, Elp1-c-Myc (S. cerevisiae) (assay: co-IP; Elp1-c-Myc immobilised on antibody-coupled Dynabeads; 8 mg total yeast protein in B60 buffer (50 mM HEPES-KOH pH 7.3, 60 mM KOAc), 4°C overnight; Kti12-HA detected by Western blot).

Binder	binding
B1	binds
B2	binds
B3	binds
B4	binds
B5	binds
B6	binds
B7	binds
B8	binds
B9	binds

These binders were tested against T1, Elp1-c-Myc (S. cerevisiae) (assay: co-IP; first step of a sequential IP: 10 mg extract in IPP100 buffer (10 mM Tris-HCl pH 8.0, 100 mM NaCl) with anti-c-Myc Dynabeads, 30 min at room temperature, washed with IPP300 (300 mM NaCl); with or without UV irradiation; Western blot).

Binder	binding
B1	binds

The binders below were run against T1, Elp1-c-Myc (S. cerevisiae) (assay: pull-down; Elp1-c-Myc immune-precipitated from kti12Δ extract and held on beads; 5 μM recombinant Kti12 pre-incubated mock or with 2 mM ATP, ADP or AppNHp, with or without 3 μM bulk yeast tRNA; IPP100 buffer, 60 min at 4°C; Western blot; only the binder purified).

Binder	binding
B10	binds
